In patent US6380161B1, “Compositions for treating chemotherapy-resistant tumor cells and targeted chemotherapy compositions” (priority 1999, dated 2002):
Some of these results come from one statement about several compounds together. Residues, ends and D or L forms follow the SMILES beside them. *: point of attachment. X1 = COc1cccc2c1C(=O)c1c(O)c3c(c(O)c1C2=O)CC(O)(C(=O)CO)C[C@@H]3O[C@H]1C[C@H](N*)[C@H](O)[C@H](C)O1; Acm = CC(=O)NC*

System: Melanoma tumor cells
Experiment: Melanoma tumor development (lung tumor colonies) in mice
Assay type: in vivo
Conditions: intraperitoneally 24 and 96 hours after tumor implantation, 18 μM/kg
Procedure: This experiment was designed to evaluate whether the conjugation of the peptide to doxorubicin altered its ability to prevent wild-type, nonresistant tumor development in mice. Melanoma tumor cells were injected into mice. The animals (5 in each group) were treated intraperitoneally 24 and 96 hours after tumor implantation with either buffer alone, Dox-P, the Cys(Acm)-Ser-Val-Thr-Cys(Acm)-Gly (SEQ ID NO: 6) peptide, or Dox, at a concentration of 18 μM/kg. The mice were sacrificed and the melanoma tumor colonies on the lung were counted. […] Additionally, the tumor colonies in the Dox-P and the Dox groups were 2-5 fold smaller than in the buffer group.

| Structure (SMILES) | Size of tumor colonies relative to buffer group |
| --- | --- |
| COc1cccc2c1C(=O)c1c(O)c3c(c(O)c1C2=O)C[C@@](O)(C(=O)CO)C[C@@H]3O[C@H]1C[C@H](N)[C@H](O)[C@H](C)O1 [Dox, doxorubicin, reference compound] | 2-5 fold smaller |
| COc1cccc2c1C(=O)c1c(O)c3c(c(O)c1C2=O)CC(O)(C(=O)CO)C[C@@H]3O[C@H]1C[C@H](NC(=O)CNC(=O)[C@H](CSCNC(C)=O)NC(=O)[C@@H](NC(=O)[C@@H](NC(=O)[C@H](CO)NC(=O)[C@H](CSCNC(C)=O)NC(C)=O)C(C)C)[C@@H](C)O)[C@H](O)[C@H](C)O1 (some centres unmarked) [Dox-P] (Ac-C(Acm)SVTC(Acm)G-X1) | 2-5 fold smaller |
